In the supplement of paper PMC10849652:
The other results are listed elsewhere or left out.

By UniProt entry, the sequences of proteins in these tests, tags left out. Where a name states a change or a piece, a line headed by the entry shows the natural chain unless it says otherwise.
UniProt P08134, whole entry, looked up: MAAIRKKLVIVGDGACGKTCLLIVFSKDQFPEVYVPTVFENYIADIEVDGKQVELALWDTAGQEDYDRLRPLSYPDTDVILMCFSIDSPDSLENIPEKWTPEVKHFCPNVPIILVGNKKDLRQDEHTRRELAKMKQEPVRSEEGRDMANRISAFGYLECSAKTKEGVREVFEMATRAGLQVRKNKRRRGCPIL
UniProt P62745, whole entry, looked up: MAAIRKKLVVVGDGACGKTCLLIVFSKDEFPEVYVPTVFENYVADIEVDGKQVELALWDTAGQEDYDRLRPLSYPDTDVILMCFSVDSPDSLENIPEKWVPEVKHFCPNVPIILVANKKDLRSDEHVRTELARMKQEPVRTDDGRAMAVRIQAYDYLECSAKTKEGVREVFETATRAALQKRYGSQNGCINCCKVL
UniProt Q00765: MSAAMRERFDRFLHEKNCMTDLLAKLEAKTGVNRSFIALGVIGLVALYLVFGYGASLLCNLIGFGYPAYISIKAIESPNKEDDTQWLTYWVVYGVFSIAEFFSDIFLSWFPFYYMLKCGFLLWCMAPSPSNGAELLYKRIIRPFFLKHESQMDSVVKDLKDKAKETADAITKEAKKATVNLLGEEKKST
UniProt Q9BQY4: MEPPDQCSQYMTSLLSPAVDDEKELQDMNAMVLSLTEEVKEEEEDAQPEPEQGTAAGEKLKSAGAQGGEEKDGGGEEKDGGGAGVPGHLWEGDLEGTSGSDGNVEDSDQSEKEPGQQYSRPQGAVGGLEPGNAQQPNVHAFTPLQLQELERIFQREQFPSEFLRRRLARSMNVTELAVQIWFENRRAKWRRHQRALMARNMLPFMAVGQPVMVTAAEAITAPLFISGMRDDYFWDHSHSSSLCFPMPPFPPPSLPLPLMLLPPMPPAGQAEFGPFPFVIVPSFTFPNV
UniProt Q96NA2: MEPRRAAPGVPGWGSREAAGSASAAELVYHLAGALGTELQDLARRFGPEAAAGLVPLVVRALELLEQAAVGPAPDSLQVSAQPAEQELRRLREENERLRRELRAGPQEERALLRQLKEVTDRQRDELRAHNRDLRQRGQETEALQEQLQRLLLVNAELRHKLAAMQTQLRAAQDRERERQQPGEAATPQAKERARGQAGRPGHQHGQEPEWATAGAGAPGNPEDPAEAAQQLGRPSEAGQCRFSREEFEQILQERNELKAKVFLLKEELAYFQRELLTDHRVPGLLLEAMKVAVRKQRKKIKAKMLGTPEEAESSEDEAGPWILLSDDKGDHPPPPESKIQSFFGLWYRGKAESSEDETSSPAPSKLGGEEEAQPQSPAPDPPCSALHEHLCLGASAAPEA
UniProt Q96I51, whole entry, looked up: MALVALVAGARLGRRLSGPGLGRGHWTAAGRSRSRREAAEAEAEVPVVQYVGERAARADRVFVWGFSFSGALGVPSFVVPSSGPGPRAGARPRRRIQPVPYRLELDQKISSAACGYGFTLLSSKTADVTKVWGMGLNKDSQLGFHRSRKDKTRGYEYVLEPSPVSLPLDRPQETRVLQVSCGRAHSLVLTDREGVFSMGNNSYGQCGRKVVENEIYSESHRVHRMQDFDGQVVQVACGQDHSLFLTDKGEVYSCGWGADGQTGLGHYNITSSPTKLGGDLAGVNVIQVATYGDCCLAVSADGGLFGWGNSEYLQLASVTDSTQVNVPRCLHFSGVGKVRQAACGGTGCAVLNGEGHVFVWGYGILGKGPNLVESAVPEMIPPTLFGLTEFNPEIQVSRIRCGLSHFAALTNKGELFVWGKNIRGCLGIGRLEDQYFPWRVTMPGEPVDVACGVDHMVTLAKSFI
UniProt Q8NBN7: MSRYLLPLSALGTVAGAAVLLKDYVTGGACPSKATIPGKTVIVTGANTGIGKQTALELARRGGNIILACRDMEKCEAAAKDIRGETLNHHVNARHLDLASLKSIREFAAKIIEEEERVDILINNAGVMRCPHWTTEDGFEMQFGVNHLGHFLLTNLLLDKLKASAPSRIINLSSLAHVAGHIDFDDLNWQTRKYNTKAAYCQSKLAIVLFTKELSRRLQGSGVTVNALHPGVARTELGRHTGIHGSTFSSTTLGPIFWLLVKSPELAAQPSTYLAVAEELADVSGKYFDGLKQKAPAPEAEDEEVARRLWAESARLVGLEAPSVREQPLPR
UniProt Q9BV68: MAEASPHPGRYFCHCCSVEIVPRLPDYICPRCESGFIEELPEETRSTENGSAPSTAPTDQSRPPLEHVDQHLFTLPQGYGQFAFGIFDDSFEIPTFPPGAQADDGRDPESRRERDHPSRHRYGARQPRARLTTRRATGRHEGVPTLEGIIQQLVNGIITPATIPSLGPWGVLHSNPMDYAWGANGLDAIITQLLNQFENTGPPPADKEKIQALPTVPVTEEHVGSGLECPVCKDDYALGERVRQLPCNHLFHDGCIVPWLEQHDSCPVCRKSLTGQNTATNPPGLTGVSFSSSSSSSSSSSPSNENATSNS
UniProt Q5TA31: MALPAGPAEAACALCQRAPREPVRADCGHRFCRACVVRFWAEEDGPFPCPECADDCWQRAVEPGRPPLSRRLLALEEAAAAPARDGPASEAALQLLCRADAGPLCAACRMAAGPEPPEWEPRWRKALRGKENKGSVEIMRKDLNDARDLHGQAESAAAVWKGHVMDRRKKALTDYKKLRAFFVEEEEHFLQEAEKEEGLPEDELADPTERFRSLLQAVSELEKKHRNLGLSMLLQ
UniProt Q9BTD8: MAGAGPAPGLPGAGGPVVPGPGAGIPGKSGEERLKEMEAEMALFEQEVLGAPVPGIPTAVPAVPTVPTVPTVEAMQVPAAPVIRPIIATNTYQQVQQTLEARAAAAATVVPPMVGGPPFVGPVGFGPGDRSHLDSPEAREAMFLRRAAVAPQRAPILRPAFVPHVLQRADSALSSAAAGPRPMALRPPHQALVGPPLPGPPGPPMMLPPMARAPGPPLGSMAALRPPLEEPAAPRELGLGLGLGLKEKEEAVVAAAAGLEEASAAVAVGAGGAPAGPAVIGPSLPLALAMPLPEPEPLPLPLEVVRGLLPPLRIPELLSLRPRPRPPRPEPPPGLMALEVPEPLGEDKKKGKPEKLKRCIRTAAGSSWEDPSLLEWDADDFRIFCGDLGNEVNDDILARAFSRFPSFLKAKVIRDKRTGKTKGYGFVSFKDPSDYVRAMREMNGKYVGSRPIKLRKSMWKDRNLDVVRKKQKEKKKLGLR
UniProt Q9H0Z9: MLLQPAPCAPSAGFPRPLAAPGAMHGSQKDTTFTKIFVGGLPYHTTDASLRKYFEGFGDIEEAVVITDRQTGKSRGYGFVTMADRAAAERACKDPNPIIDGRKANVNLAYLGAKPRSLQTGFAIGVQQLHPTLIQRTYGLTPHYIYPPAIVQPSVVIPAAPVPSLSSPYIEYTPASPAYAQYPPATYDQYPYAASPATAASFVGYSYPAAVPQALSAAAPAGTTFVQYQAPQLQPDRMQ
UniProt Q96DB5: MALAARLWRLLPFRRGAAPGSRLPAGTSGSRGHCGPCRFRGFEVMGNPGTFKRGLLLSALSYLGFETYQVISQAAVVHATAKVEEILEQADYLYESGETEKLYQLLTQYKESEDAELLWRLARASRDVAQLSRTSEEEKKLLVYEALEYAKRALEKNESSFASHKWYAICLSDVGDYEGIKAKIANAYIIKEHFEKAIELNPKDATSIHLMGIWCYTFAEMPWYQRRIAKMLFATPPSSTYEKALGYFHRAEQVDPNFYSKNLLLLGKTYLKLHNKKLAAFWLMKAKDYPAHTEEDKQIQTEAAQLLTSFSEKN
UniProt Q9UBS8: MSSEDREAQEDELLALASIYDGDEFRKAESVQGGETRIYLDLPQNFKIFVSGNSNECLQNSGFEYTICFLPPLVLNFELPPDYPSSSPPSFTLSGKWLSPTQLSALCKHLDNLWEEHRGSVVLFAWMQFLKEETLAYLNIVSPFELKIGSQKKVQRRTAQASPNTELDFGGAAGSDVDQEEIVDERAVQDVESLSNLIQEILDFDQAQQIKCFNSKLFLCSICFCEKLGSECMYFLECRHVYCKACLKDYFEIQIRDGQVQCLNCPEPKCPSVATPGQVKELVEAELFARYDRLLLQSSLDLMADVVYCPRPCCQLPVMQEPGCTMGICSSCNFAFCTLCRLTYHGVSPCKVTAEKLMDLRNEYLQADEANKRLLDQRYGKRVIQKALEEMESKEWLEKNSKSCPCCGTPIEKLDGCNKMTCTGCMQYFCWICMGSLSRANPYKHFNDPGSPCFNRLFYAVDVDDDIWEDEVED
UniProt P46063: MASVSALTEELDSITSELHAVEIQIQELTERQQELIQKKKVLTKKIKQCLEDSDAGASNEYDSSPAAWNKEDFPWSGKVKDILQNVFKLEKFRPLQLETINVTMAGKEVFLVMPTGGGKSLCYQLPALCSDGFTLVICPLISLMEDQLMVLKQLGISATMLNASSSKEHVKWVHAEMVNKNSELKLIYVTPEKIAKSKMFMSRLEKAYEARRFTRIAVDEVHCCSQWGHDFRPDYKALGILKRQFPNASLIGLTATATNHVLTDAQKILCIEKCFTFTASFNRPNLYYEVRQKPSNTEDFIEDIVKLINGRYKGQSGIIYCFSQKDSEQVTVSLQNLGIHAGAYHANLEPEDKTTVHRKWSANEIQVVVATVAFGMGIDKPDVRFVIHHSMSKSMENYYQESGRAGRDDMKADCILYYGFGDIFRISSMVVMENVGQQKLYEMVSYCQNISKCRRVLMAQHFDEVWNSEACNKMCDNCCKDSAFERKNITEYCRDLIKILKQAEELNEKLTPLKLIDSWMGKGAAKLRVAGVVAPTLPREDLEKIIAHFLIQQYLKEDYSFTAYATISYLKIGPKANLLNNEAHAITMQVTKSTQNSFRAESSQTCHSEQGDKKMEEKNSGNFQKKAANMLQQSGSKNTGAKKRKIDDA
UniProt Q8TC12: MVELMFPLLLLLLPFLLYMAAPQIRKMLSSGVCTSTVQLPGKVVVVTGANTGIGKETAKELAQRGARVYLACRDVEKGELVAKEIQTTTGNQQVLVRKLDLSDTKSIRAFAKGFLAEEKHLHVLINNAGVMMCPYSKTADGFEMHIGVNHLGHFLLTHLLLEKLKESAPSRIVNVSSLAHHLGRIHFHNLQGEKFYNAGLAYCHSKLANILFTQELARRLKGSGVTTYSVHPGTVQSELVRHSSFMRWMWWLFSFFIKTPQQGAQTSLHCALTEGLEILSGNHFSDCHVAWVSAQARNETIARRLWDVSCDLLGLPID
UniProt P34096: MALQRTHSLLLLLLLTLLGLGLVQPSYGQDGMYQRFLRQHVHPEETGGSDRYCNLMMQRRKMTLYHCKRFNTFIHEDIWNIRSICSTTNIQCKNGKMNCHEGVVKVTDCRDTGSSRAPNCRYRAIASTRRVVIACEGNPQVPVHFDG
UniProt Q9BRS2: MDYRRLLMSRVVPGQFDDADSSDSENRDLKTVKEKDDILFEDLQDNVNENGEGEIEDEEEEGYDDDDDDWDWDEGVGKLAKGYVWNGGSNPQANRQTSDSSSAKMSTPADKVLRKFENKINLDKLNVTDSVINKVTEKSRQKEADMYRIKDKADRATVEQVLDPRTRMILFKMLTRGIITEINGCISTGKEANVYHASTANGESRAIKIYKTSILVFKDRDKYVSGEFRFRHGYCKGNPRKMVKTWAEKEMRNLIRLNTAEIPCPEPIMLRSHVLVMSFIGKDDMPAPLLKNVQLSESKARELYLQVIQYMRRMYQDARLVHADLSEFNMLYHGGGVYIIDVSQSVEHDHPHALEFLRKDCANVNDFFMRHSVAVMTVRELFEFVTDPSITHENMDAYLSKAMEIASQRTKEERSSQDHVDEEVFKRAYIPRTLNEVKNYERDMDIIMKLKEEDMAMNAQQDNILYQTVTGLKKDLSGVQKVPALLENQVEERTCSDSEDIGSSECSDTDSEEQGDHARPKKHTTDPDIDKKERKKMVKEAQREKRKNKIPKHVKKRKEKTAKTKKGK
UniProt Q04206, whole entry, looked up: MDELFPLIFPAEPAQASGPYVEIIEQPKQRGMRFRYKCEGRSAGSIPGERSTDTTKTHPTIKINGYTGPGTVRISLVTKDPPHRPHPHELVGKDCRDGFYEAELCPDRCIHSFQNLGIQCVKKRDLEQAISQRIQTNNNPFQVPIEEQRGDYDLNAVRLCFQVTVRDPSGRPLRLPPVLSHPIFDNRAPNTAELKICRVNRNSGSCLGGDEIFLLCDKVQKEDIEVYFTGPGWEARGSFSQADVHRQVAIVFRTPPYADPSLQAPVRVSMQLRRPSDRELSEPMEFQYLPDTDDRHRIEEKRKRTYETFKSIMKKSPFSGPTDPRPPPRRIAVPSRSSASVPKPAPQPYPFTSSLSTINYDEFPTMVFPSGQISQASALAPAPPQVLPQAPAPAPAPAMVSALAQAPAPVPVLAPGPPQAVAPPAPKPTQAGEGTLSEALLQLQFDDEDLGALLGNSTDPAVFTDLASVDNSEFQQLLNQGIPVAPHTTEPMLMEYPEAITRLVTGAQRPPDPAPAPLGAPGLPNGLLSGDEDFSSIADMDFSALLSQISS

Legend:
Experiment in all cases: log2 fold change, soluble protein after heating vs DMSO (PISA); higher = thermal stabilisation; K562 cells, 10 uM, 30 min; active = over 0.2 and 3.5 SD of the protein, either way, in both replicates (recomputed)
[1] = compound: CC1=C(C=C(C=C1)NC(=O)C2=CC(=CC=C2)C(C)(C)C#N)NC3=CC4=C(C=C3)N=CN(C4=O)C
In short: (§1)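 K562 cells (2×10^6 cells/mL) were treated with 10 μM compound for 30 min, and aliquots were heated for 3 min over 48°C-58°C. Pooled aliquots were extracted in PBS with 0.5% NP-40 at 4°C, and the supernatant after 21,000xg for 90 min was measured by TMTpro 16plex LC-MS/MS with channel sums equalised. Reported thermal stability, relative to control samples and from duplicates, is a log2 fold change.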

[2] = compound: CC1=C(C=C(C=C1)NC(=O)C2=CC(=CC=C2)N(C)C)NC(=O)C3=CC=C(C=C3)O
In short: as §1

[3] = compound: CC1=CC=C(C=C1)SC2=C3C=C(SC3=CN=C2)C(=O)N
In short: as §1

[4] = compound: CC1=NC(=CC=C1)C2=C(N=C(N2)C(C)(C)C)C3=CC4=NC=CN=C4C=C3
In short: as §1

[5] = compound: CCCCN(Cc1ccc(C(=O)NO)cc1)C(=O)Nc1ccccc1 [Nexturastat A]
In short: as §1

[6] = compound: CCCS(=O)(=O)Nc1ccc(F)c(C(=O)c2c[nH]c3ncc(-c4ccc(Cl)cc4)cc23)c1F [vemurafenib]
In short: as §1

[7] = compound: CCCS(=O)(=O)Nc1ccc(F)c(C(=O)c2c[nH]c3ncc(Cl)cc23)c1F
In short: as §1

[8] = compound: CCCc1cc(C)[nH]c(=O)c1CNC(=O)c1cc(-c2ccnc(N3CCN(C)CC3)c2)cc2c1cnn2C(C)C
In short: as §1

[9] = compound: CCN(CC)Cc1ccc2cc(COC(=O)Nc3ccc(C(=O)NO)cc3)ccc2c1 [givinostat]
In short: as §1

[10] = compound: CCN(CCCOc1ccc2c(Nc3cc(CC(=O)Nc4cccc(F)c4)[nH]n3)ncnc2c1)CCOP(=O)(O)O [barasertib]
In short: as §1

Row | Target | log2 fold change [1] | log2 fold change [2] | log2 fold change [3] | log2 fold change [4] | log2 fold change [5] | log2 fold change [6] | log2 fold change [7] | log2 fold change [8] | log2 fold change [9] | log2 fold change [10]
1 | RHOC (UniProt P08134) | inactive: 0 | inactive: 0.031 | inactive: 0.016 | inactive: -0.001 | inactive: -0.042 | inactive: 0 | inactive: 0.01 | inactive: -0.029 | inactive: -0.169 | inactive: -0.018
2 | RHEB (UniProt Q15382) | inactive: 0.008 | inactive: -0.002 | inactive: 0.008 | inactive: 0.052 | active: -0.277 | inactive: -0.004 | inactive: 0.021 | inactive: -0.026 | inactive: -0.009 | inactive: 0.014
3 | REL (UniProt Q04864) | inactive: 0.001 | inactive: -0.044 | inactive: 0.033 | inactive: -0.004 | inactive: -0.053 | inactive: 0.044 | inactive: 0.077 | inactive: -0.022 | inactive: 0.101 | inactive: 0.079
4 | REEP3 (UniProt Q6NUK4) | inactive: -0.077 | inactive: 0.053 | inactive: -0.049 | inactive: 0.022 | inactive: 0.143 | inactive: -0.045 | inactive: -0.164 | inactive: -0.218 | inactive: 0.054 | inactive: 0.017
5 | RNF181 (UniProt Q9P0P0) | inactive: -0.054 | inactive: 0.034 | inactive: 0.046 | inactive: -0.016 | inactive: 0.013 | inactive: -0.017 | inactive: -0.008 | inactive: 0.036 | inactive: -0.057 | inactive: 0.037
6 | RDH14 (UniProt Q9HBH5) | inactive: 0.066 | inactive: -0.049 | inactive: -0.021 | inactive: 0.006 | inactive: 0.043 | inactive: 0.023 | inactive: 0.003 | inactive: 0.006 | inactive: -0.039 | inactive: -0.047
7 | RHOB (UniProt P62745) | inactive: 0.004 | inactive: -0.007 | inactive: 0.143 | inactive: 0.138 | inactive: 0.249 | inactive: -0.251 | inactive: -0.122 | inactive: -0.014 | inactive: -0.23 | inactive: 0.014
8 | RFX7 (UniProt Q2KHR2) | inactive: 0.177 | – | – | – | – | – | – | – | – | –
9 | REEP5 (UniProt Q00765) | inactive: -0.003 | inactive: 0.057 | inactive: 0.013 | inactive: -0.004 | inactive: 0.024 | inactive: -0.063 | inactive: -0.07 | inactive: -0.106 | inactive: -0.112 | inactive: 0.003
10 | RHOXF2 (UniProt Q9BQY4) | inactive: -0.03 | inactive: 0.034 | inactive: -0.037 | inactive: 0.021 | inactive: 0.083 | inactive: -0.015 | inactive: 0.012 | inactive: -0.024 | inactive: 0.05 | inactive: 0.033
11 | RIC8A isoform 3 (UniProt Q9NPQ8) | inactive: 0.074 | inactive: -0.051 | inactive: 0.024 | inactive: 0.023 | inactive: 0.198 | inactive: 0.028 | inactive: 0.085 | inactive: 0.111 | inactive: 0.028 | inactive: 0.073
12 | REPIN1 isoform 4 (UniProt Q9BWE0) | inactive: 0.005 | inactive: -0.025 | inactive: -0.016 | inactive: 0.021 | inactive: 0.024 | inactive: 0.021 | inactive: 0.026 | inactive: -0.097 | inactive: -0.023 | inactive: -0.004
13 | RILP (UniProt Q96NA2) | inactive: 0.001 | inactive: -0.005 | inactive: 0.121 | inactive: -0.018 | inactive: 0.002 | inactive: 0.147 | inactive: 0.085 | inactive: 0.029 | inactive: -0.005 | inactive: 0.065
14 | RCC1L (UniProt Q96I51) | inactive: -0.033 | inactive: -0.036 | inactive: 0.025 | inactive: 0.015 | inactive: -0.04 | inactive: -0.003 | inactive: -0.007 | inactive: -0.03 | inactive: 0.001 | inactive: 0.007
15 | RDH13 (UniProt Q8NBN7) | inactive: 0.011 | inactive: -0.082 | inactive: 0.045 | inactive: 0.078 | inactive: -0.046 | inactive: 0.044 | inactive: 0.019 | inactive: -0.01 | inactive: -0.002 | inactive: 0.033
16 | REEP4 (UniProt Q9H6H4) | inactive: 0.08 | inactive: 0.001 | inactive: 0.047 | inactive: -0.043 | inactive: 0.107 | inactive: 0.008 | inactive: 0.126 | inactive: 0.019 | inactive: 0.011 | inactive: 0.002

Row | Target | log2 fold change [1] | log2 fold change [2] | log2 fold change [3] | log2 fold change [4] | log2 fold change [5] | log2 fold change [6] | log2 fold change [7] | log2 fold change [8] | log2 fold change [9] | log2 fold change [10]
17 | RNF126 (UniProt Q9BV68) | inactive: 0.022 | inactive: -0.041 | inactive: 0.026 | inactive: 0.059 | inactive: -0.02 | inactive: -0.065 | inactive: 0.059 | inactive: 0.017 | inactive: -0.085 | inactive: -0.011
18 | RNASET2 (UniProt O00584) | inactive: 0.007 | inactive: 0.026 | inactive: 0.033 | inactive: 0.027 | inactive: -0.079 | inactive: -0.019 | inactive: 0.004 | inactive: 0.001 | inactive: -0.006 | inactive: -0.013
19 | RNF187 (UniProt Q5TA31) | inactive: -0.074 | inactive: -0.102 | inactive: 0.048 | inactive: -0.005 | inactive: 0.085 | inactive: -0.106 | inactive: 0.039 | inactive: 0 | inactive: 0.036 | inactive: 0.041
20 | RNF167 (UniProt Q9H6Y7) | inactive: 0.037 | inactive: 0.008 | inactive: -0.041 | inactive: 0.037 | inactive: -0.059 | inactive: 0.031 | inactive: -0.06 | inactive: -0.096 | inactive: 0.005 | inactive: 0.018
21 | RBM42 (UniProt Q9BTD8) | inactive: -0.006 | inactive: 0.011 | inactive: -0.075 | inactive: -0.016 | inactive: 0.092 | inactive: -0.036 | inactive: 0.012 | inactive: 0.08 | inactive: 0.064 | inactive: -0.091
22 | RIPK2 (UniProt O43353) | inactive: -0.118 | inactive: 0.078 | inactive: 0.01 | inactive: 0.086 | inactive: 0.021 | inactive: 0.119 | inactive: 0.059 | inactive: 0.016 | inactive: -0.048 | inactive: 0.009
23 | RBM38 (UniProt Q9H0Z9) | inactive: -0.018 | inactive: -0.165 | inactive: 0.055 | inactive: 0.037 | inactive: -0.003 | inactive: -0.123 | inactive: -0.049 | inactive: 0.004 | inactive: -0.004 | inactive: 0.039
24 | RMDN1 (UniProt Q96DB5) | inactive: -0.036 | inactive: 0.01 | inactive: 0.023 | inactive: 0.033 | inactive: -0.015 | inactive: 0.043 | inactive: 0.022 | inactive: -0.028 | inactive: 0.001 | inactive: 0.026
25 | RNF14 (UniProt Q9UBS8) | inactive: 0.039 | inactive: -0.034 | inactive: 0.004 | inactive: 0.05 | inactive: -0.04 | inactive: 0.026 | inactive: 0.04 | inactive: 0.029 | inactive: -0.07 | inactive: 0.036
26 | RECQL (UniProt P46063) | inactive: 0.028 | inactive: -0.012 | inactive: 0.011 | inactive: 0.039 | inactive: -0.002 | inactive: -0.009 | inactive: 0.063 | inactive: -0.007 | inactive: 0.038 | inactive: -0.002
27 | RDH11 (UniProt Q8TC12) | inactive: 0.068 | inactive: -0.054 | inactive: 0.019 | inactive: -0.016 | inactive: 0.011 | inactive: 0.042 | inactive: 0.035 | inactive: 0.007 | inactive: 0.066 | inactive: 0.057
28 | RNASE4 (UniProt P34096) | inactive: 0.082 | inactive: -0.01 | inactive: 0.052 | inactive: 0.073 | inactive: 0.222 | inactive: 0.026 | inactive: 0.051 | inactive: -0.466 | inactive: -0.172 | inactive: 0.025
29 | RIOK1 (UniProt Q9BRS2) | inactive: -0.022 | inactive: 0.014 | inactive: -0.032 | inactive: -0.008 | inactive: 0.067 | inactive: -0.012 | inactive: -0.028 | inactive: -0.035 | inactive: -0.024 | inactive: -0.003
30 | RNF113A (UniProt O15541) | inactive: -0.054 | inactive: 0.015 | inactive: 0.064 | inactive: -0.015 | inactive: -0.068 | inactive: -0.058 | inactive: -0.016 | inactive: -0.018 | inactive: -0.004 | inactive: -0.015
31 | RELA (UniProt Q04206) | inactive: 0.013 | inactive: 0 | inactive: 0.016 | inactive: 0.014 | inactive: 0.028 | inactive: 0.014 | inactive: 0.067 | inactive: 0.021 | inactive: 0.015 | inactive: 0.013

From no. 20 as far as 21, as listed above:
Row | Target | log2 fold change [1] | log2 fold change [2] | log2 fold change [3] | log2 fold change [4] | log2 fold change [5] | log2 fold change [6] | log2 fold change [7] | log2 fold change [8] | log2 fold change [9] | log2 fold change [10]
20 | RNF167 (UniProt Q9H6Y7) | inactive: 0.037 | inactive: 0.008 | inactive: -0.041 | inactive: 0.037 | inactive: -0.059 | inactive: 0.031 | inactive: -0.06 | inactive: -0.096 | inactive: 0.005 | inactive: 0.018
21 | RBM42 (UniProt Q9BTD8) | inactive: -0.006 | inactive: 0.011 | inactive: -0.075 | inactive: -0.016 | inactive: 0.092 | inactive: -0.036 | inactive: 0.012 | inactive: 0.08 | inactive: 0.064 | inactive: -0.091
